Source: PubChem BioAssay AID1439 (NMMLSC, 2008)
In all, about 220,000 compounds went through this assay and about 770 (0.35%) were called active. The inconclusive results got no clear call from the source; some entries with a clear call stand among them for comparison. No stated cut-off is given here; in the data, active means binding response below about 49% or above about 150%; inconclusive means no clear call, values can overlap the other calls; inactive means in between.

Amino acid sequences for entries named in this document (tags omitted).
UniProt P09471, whole entry, looked up: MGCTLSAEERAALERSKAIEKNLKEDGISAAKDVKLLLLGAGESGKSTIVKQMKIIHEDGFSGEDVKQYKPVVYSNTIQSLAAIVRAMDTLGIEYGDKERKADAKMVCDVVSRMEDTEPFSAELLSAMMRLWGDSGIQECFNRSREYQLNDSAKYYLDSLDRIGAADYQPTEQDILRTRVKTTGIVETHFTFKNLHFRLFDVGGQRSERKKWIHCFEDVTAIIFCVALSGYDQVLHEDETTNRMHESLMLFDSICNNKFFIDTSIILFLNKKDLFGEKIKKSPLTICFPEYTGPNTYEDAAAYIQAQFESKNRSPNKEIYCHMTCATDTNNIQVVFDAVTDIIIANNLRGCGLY

The compounds below were run against Guanine nucleotide-binding protein G(o) subunit alpha (Homo sapiens) (UniProt P09471) (assay: RGS7-Galphao binding modulators, primary screen, biochemical, multiplexed bead flow cytometry (AID 1439;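 further: fluorescent Galphao held in activated GDP-AlF4 state binding bead-coupled RGS7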)). Settings: at 10 µM, actives lie on both sides.

| Structure (SMILES) | binding response (% of control) |
| --- | --- |
| COc1ccccc1C(=O)Nc1ccc(-c2nnn(CC(=O)NCc3ccco3)n2)cc1 | inconclusive: 132% |
| CN(CC(=O)N1CCN(c2ncccn2)CC1)S(=O)(=O)c1ccc(Cl)cc1 | inactive: 96.9% |
| COC(=O)c1ccc(CN2CCC(CO)(Cc3ccc(OC)cc3)CC2)cc1 | inconclusive: 107% |
| CN(C(=O)CSc1nc(O)cc(=O)n1C1CCCC1)c1ccccc1 | inconclusive: 93.8% |
| Cc1ccc2c(C)c(C(=O)Nc3ccc(S(N)(=O)=O)cc3)oc2c1C | inconclusive: 92% |
| C=CCN1C(=O)S/C(=C\c2ccc3c(c2)n(C)c(=O)n3C)C1=O | inactive: 97.2% |
| Clc1ccccc1/C=C/c1ccnc2ccccc12 | inconclusive: 104% |
| CCc1cccc(N(C)C(N)=Nc2cccc3ccccc23)c1 | inconclusive: 122% |
| NC(=O)CNC(=O)c1ccc(Cl)cc1 | inconclusive: 99.9% |
| COc1cc(/C=C(\C#N)C(=O)NCC2CCCO2)ccc1OCCC(C)C (stereo not given) | inconclusive: 28% |
| Cc1cccc(NC(=O)CCNS(=O)(=O)c2cccc3nsnc23)c1 | inactive: 102% |
| COc1cc(/C=C2/CC/C(=C/c3ccc(O)c(OC)c3)C2=O)ccc1O | inconclusive: 103% |
| COc1ccc(OC)c(Nc2nc(NCc3ccco3)nc(N)c2[N+](=O)[O-])c1 | inconclusive: 73.9% |
| O=C(COc1ccc(F)cc1)c1c(O)cc(O)cc1O | inconclusive: 108% |
| Cc1cc(C)nc(NC2=NCCN2C(=S)Nc2ccc(C)c(C)c2)n1 | inconclusive: 101% |
| CC1(C)CC(=O)C=C(NCCN2CCN(C(=S)Nc3ccc(F)cc3)CC2)C1 | inconclusive: 42% |
| CC(=O)Nc1ccc(S(=O)(=O)N2CCCC(C(=O)O)C2)cc1 (stereo not given) | inconclusive: 114% |
| O=S(=O)(CC(c1ccccc1)N1CCCCC1)c1ccc(Cl)cc1 (stereo not given) | inconclusive: 254% |
| CCNc1nc(Cl)nc(-c2cn(-c3ccccc3)c3ccccc23)n1 | inconclusive: 75.5% |
| O=c1[nH][nH]c(-c2ccccc2)c1C=Nc1ccc(F)cc1F | inconclusive: 112% |
| COc1ccc(-c2cccc(C3CC=CC4C3C(=O)N(Cc3ccccc3)C4c3ccc4ccccc4c3)c2)cc1 (stereo not given) | inconclusive: 116% |
| Cc1cc(=O)oc2ccc(OC(=O)CC(C)C)cc12 | inconclusive: 76.5% |
| N=C1C2=C3Sc4ccccc4N3CCCC2=NN1c1cccc(S(=O)(=O)O)c1 | inconclusive: 433% |

By substructure: the entries above with a furan ring, fused or not

| Structure (SMILES) | binding response (% of control) |
| --- | --- |
| COc1ccccc1C(=O)Nc1ccc(-c2nnn(CC(=O)NCc3ccco3)n2)cc1 | inconclusive: 132% |
| Cc1ccc2c(C)c(C(=O)Nc3ccc(S(N)(=O)=O)cc3)oc2c1C | inconclusive: 92% |
| COc1ccc(OC)c(Nc2nc(NCc3ccco3)nc(N)c2[N+](=O)[O-])c1 | inconclusive: 73.9% |

Further compounds follow.

| Structure (SMILES) | binding response (% of control) |
| --- | --- |
| N#Cc1ccc(COC(=O)c2ccccn2)cc1 | inconclusive: 113% |
| O=C(O)c1ccc(-n2cncn2)c([N+](=O)[O-])c1 | inconclusive: 107% |
| CCn1cc(C(=O)OCC(=O)N(C)Cc2ccccc2)c(=O)c2ccc(C)nc21 | inconclusive: 105% |
| COc1ccc2nc(C)cc(SCC(NC(C)=O)C(=O)OC(C)C)c2c1 (stereo not given) | inconclusive: 150% |
| CC1=CC(=C2C=CC(=O)C=C2)C=C(C)N1C | inconclusive: 138% |
| CCC(=O)Nc1cc(C(C)(C)C)ccc1C(C)=O | inactive: 90.6% |
| NS(=O)(=O)c1ccc(CCNCC(=O)NC2CC2)cc1 | inconclusive: 107% |
| Cc1cc(N2CC(C(=O)NCc3cccnc3)CC2=O)ccc1C(C)C (stereo not given) | inconclusive: 87.8% |
| CN(C)C=NC(=O)c1cc(C(=O)c2ccc(Cl)cc2Cl)c[nH]1 | inconclusive: 95.1% |
| CCc1nc(NC(=O)NS(=O)(=O)c2ccccc2C(=O)OC)nc(OC)n1 | inactive: 94.8% |
| Nc1cc(S(=O)(=O)Nc2ccc(Cl)cc2)ccc1N1CCOCC1 | inconclusive: 234% |
| COC(=O)C(NC(C)=O)(Nc1nc2ccc(S(C)(=O)=O)cc2s1)C(F)(F)F (stereo not given) | inactive: 94% |
| COCc1cc(=O)[nH]c(SCCS(=O)(=O)c2ccc(C)cc2)n1 | inconclusive: 126% |
| COCc1cc(=O)[nH]c(/N=C(\N)Nc2ccc(Cl)c(Cl)c2)n1 | inconclusive: 137% |
| Cc1ccc(CNC(=O)c2ccc(S(=O)(=O)Nc3c(C)n(C)n(-c4ccccc4)c3=O)cc2)cc1 | inconclusive: 102% |
| O=C1CCC(C(=O)OCc2cc(=O)oc3ccc4ccccc4c23)=NN1 | inconclusive: -34.6% |
| Cc1ccc(N2CN=c3s/c(=C\c4ccccn4)c(=O)n3C2)cc1 | active: 48.2% |
| CNC(=S)Nc1ccc(Cc2ccncc2)cc1 | inconclusive: -708% |
| CN(N)C(=S)Nc1ccc(Cl)cc1 | inactive: 100% |
| O=C(N=C1c2ccccc2CN1c1ccc(F)c(F)c1)c1cccnc1 | inconclusive: 107% |
| Cn1nc(C(F)(F)F)c(-c2ccc(F)cc2)c1NC(=O)CSCC(=O)O | inconclusive: 115% |
| NNC(=O)c1csc(CS(=O)(=O)c2ccc(Cl)cc2)n1 | inconclusive: 125% |
| O=C(/C(C=Nc1ccc(Br)cc1)=C(/O)c1ccco1)C(F)(F)F | inactive: 96.2% |

| Structure (SMILES) | binding response (% of control) |
| --- | --- |
| O=C1Nc2ccc(Br)cc2C1=Nc1cccnc1 | inconclusive: 80.9% |
| Cc1cc(C)c2c(N)c(C(=O)NCC3CCCCC3)sc2n1 | inactive: 103% |
| O=C(O)c1nn(-c2cccc(Cl)c2)c(=O)cc1O | inactive: 108% |
| CC(C)Cn1c(N)c(C(=O)CSc2nc3ccccc3c(=O)n2CCCN2CCOCC2)c(=O)n(C)c1=O | inconclusive: 103% |
| CCC(=O)Oc1oc(-c2ccccc2)nc1C=Nc1ccc(C)cc1 | inconclusive: 725% |
| Cc1cccc(C(=O)N2CCC(Cc3ccccc3)CC2)c1[N+](=O)[O-] | inactive: 91.8% |
| Cc1cccc(Nc2ncnc3ccc(Br)cc23)c1 | inconclusive: 90.5% |
| C[C@@H]1CC=C[C@H]2[C@H]1C(=O)N(Cc1ccccc1)[C@H]2c1ccc2ccccc2c1/C=C/c1ccccc1 | inconclusive: 121% |
| COc1cc(/C=N\Nc2nc(-c3ccc(C)cc3)c(NC(C)=O)s2)ccc1O | inconclusive: 237% |
| NNC(=S)NC1CCS(=O)(=O)C1 (stereo not given) | inconclusive: 105% |
| CC(CCCC(C)(C)O)NC(=O)c1cc(COc2ccc3ncccc3c2)on1 (stereo not given) | inconclusive: 97.7% |
| S=c1nc[nH]c2c1cnn2-c1ccccc1 | inconclusive: 176% |
| C=CCN=C1S/C(=C\c2ccc(Cl)cc2)C(=O)N1CC=C | inconclusive: 321% |
| COc1ccc(CNC(=O)COC(=O)/C=C/c2cccc(Br)c2)cc1 | inconclusive: 110% |
| CCOc1ccc(N2C(=O)CC(NCc3ccc(S(N)(=O)=O)cc3)C2=O)cc1 (stereo not given) | inconclusive: 69.8% |
| Cc1cccc(NC(=O)COC(=O)c2cc(C)oc2C)c1 | inconclusive: 91.2% |
| CCN(CC)CCN1C(=O)C(=O)/C(=C(/O)c2c(C)[nH]c(C(=O)OC)c2C)C1c1ccccc1OC (stereo not given) | active: 159% [activator] |
| CN(CCOc1ccccc1)CC(=O)Nc1ccc(Cl)c(S(=O)(=O)N(C)C)c1 | inconclusive: 104% |
| COC(=O)c1ccc(S(=O)(=O)NCc2ccc(S(N)(=O)=O)cc2)o1 | inconclusive: 116% |
| CCn1nnc(NC(=S)NC(=O)c2ccc(-c3cccc(Cl)c3)o2)n1 | inconclusive: 130% |
| COc1ccccc1-c1c(C)nn2c(-c3ccccc3)cc(C)nc12 | inconclusive: 127% |
| O=C(NC(=S)Nc1cc(C(F)(F)F)ccc1N1CCOCC1)c1ccco1 | inconclusive: 39.9% |
| CCN1CCN(C(=O)c2ccccc2N(Cc2ccccc2)S(=O)(=O)c2ccc(OC)cc2)CC1 | inconclusive: 104% |

| Structure (SMILES) | binding response (% of control) |
| --- | --- |
| COC(=O)c1cc(=O)c2c(C)nc(C(Cl)(Cl)Cl)nc2[nH]1 | inconclusive: 80.1% |
| O=C(Cn1nnc(N2CCCC2)n1)N/N=C/c1ccc(Cl)cc1 | inconclusive: 87% |
| COc1ccc(NC(=O)Nc2cccc(Cl)c2Cl)c(OC)n1 | inconclusive: 87.5% |
| Cc1cc(C(=O)CN2C(=O)NC3(CCCCC3)C2=O)c(C)n1Cc1ccco1 | inconclusive: 92.7% |
| O=C1CN(c2nc(-c3cccs3)nc3sc4c(c23)CCCC4)CCN1 | inconclusive: 99.2% |
| CC(C)(C)S(=O)(=O)c1cnc(-c2ccc(Cl)cc2)nc1N | inconclusive: 136% |
| CCC(=O)N1CC2(CC(c3cccc(NC(=O)CC(c4ccccc4)c4ccccc4)c3)=NO2)C[C@H]1C(N)=O (stereo not given in full) | inconclusive: 69.4% |
| Cc1ccc(-n2nc(C)c3c(C)c(CCC(=O)Nc4ccc(CN5CCCC5)cc4)c(C)nc32)cc1 | inconclusive: 106% |
| COc1cc(-c2nc3oc4ccccc4c(=O)c3c(=O)n2Cc2ccco2)cc(OC)c1OC | inactive: 138% |
| CCc1ccc(NC(=O)NCC2CCN(c3ccc(OC)cc3)C2)cc1 (stereo not given) | inconclusive: 91.4% |
| O=C(COC(=O)CC(c1ccccc1)c1ccccc1)Nc1c(F)cccc1F | inactive: 102% |
| CN(C)c1ccc(/C=C(\C#N)C(=O)c2ccccc2)cc1 | inconclusive: -59.5% |
| COc1ccc(N2C(=O)CC(N(Cc3ccco3)C(=O)CCC(=O)O)C2=O)cc1 (stereo not given) | inactive: 98.8% |
| CC(C)N1CCN(Cc2ccsc2)CC1CCO (stereo not given) | inactive: 99.2% |
| O=C(O)C1CCC(=O)N(C2CCCCC2)C1c1ccccc1Cl (stereo not given) | inconclusive: 129% |
| CN(CC(=O)Nc1ccc(N2CCOCC2)cc1)CC(=O)Nc1ccccc1C#N | inactive: 103% |
| CC(=C/C(=O)O)/C(=C/c1ccccc1)C(=O)O | inactive: 103% |
| CCCCN(Cc1cc2cc(OC)ccc2[nH]c1=O)C(=O)c1ccco1 | inactive: 107% |
| Cc1c(N=c2scc(-c3ccccc3)n2CCO)c(=O)n(-c2ccccc2)n1C | inconclusive: 117% |
| O=C1CCCN1CCCNS(=O)(=O)c1ccc(F)cc1F | inconclusive: 81% |
| O=C(NCC1CCCO1)c1ccc2c(=O)n(CC3CCCO3)c(SCC(=O)N3CCCC3)nc2c1 (stereo not given) | inactive: 101% |
